Results are given in words; binding and its absence hold for the method and conditions named. Some results given as binding are weak or reduced against the parent protein; the word gives no strength. Sequences can lack the tags named with a protein.
What was measured:
[1] = target: T1, ScVps46 (S. cerevisiae Vps46), Gal4 activation domain fusion (S. cerevisiae) (UniProt P69771); assay: two-hybrid; Gal4 BD and AD fusions in yeast PJ69-4A; growth spotted on SD leu-trp-his- with 2.5 mM 3-AT and on leu-trp-ade- plates, 3 days at 28°C; repeated with reversal of BD and AD fusions
T1 sequence: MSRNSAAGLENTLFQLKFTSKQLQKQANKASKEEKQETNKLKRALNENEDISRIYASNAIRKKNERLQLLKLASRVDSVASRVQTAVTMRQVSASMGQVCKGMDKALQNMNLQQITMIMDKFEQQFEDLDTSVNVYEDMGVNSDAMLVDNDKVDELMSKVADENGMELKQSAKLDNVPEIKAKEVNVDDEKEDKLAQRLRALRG

[2] = target: T2, ScIst1 (S. cerevisiae Ist1), Gal4 DNA binding domain fusion (S. cerevisiae) (UniProt P53843); assay: two-hybrid; Gal4 BD (pGBT9) and AD (pGAD424) fusions in yeast PJ69-4A; quantitative β-galactosidase (LacZ reporter) activity; average of three independent experiments
T2 sequence: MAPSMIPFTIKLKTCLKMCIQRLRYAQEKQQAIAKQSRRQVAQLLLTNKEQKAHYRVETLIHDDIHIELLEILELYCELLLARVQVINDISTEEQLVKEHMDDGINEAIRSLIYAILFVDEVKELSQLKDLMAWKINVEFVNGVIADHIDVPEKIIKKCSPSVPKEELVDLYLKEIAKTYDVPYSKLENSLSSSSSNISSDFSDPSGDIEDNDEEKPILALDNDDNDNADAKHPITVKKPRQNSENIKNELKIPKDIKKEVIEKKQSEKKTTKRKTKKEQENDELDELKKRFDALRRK

B1: ScVps4 (S. cerevisiae Vps4), Gal4 activation domain fusion (protein, UniProt P52917 1-437)
chain: MSTGDFLTKGIELVQKAIDLDTATQYEEAYTAYYNGLDYLMLALKYEKNPKSKDLIRAKFTEYLNRAEQLKKHLESEEANAAKKSPSAGSGSNGGNKKISQEEGEDNGGEDNKKLRGALSSAILSEKPNVKWEDVAGLEGAKEALKEAVILPVKFPHLFKGNRKPTSGILLYGPPGTGKSYLAKAVATEANSTFFSVSSSDLVSKWMGESEKLVKQLFAMARENKPSIIFIDEVDALTGTRGEGESEASRRIKTELLVQMNGVGNDSQGVLVLGATNIPWQLDSAIRRRFERRIYIPLPDLAARTTMFEINVGDTPCVLTKEDYRTLGAMTEGYSGSDIAVVVKDALMQPIRKIQSATHFKDVSTEDDETRKLTPCSPGDDGAIEMSWTDIEADELKEPDLTIKDFLKAIKSTRPTVNEDDLLKQEQFTRDFGQEGN
**Q.** B1 was tested. Which binding [1] did it give?
**A.** The binding was “binds”.

**Q.** What about the binding [2] of the same binder?
**A.** The binding was “binds”.

B2: ScVps46 (S. cerevisiae Vps46), Gal4 activation domain fusion (protein, UniProt P69771 1-204)
chain: MSRNSAAGLENTLFQLKFTSKQLQKQANKASKEEKQETNKLKRALNENEDISRIYASNAIRKKNERLQLLKLASRVDSVASRVQTAVTMRQVSASMGQVCKGMDKALQNMNLQQITMIMDKFEQQFEDLDTSVNVYEDMGVNSDAMLVDNDKVDELMSKVADENGMELKQSAKLDNVPEIKAKEVNVDDEKEDKLAQRLRALRG
**Q.** How did the binding [2] turn out when B2 was run?
**A.** The binding was “binds”.
